The list shows a part of the results.
Key:
Assay in all cases: glycan array binding signal (z-score within array); higher = stronger binding
Conditions in all cases: glycan notation: IUPAC condensed, linker removed
Fuc(a1-2)Gal = target: Fuc(a1-2)Gal
Outline: (§1)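 Glycan array data came from 3228 arrays in the Consortium for Functional Glycomics database, and only arrays with an available protein sequence were kept. Glycan names were put into IUPAC-condensed notation, and columns mapping to the same glycan were averaged. The binding signal is a within-array Z-score, averaged across arrays of one protein sequence run at different concentrations or buffers and across linkers. A negative Z-score can be read as non-binding.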

Fuc(a1-2)Gal(b1-3)GalNAc = target: Fuc(a1-2)Gal(b1-3)GalNAc
Outline: as §1

[1] = target: Fuc(a1-2)Gal(b1-3)GalNAc(a1-3)[Fuc(a1-2)]Gal(b1-4)Glc
Outline: as §1

[2] = target: Fuc(a1-2)Gal(b1-3)GalNAc(a1-3)[Fuc(a1-2)]Gal(b1-4)GlcNAc
Outline: as §1

[3] = target: Fuc(a1-2)Gal(b1-3)GalNAc(b1-3)Gal
Outline: as §1

[4] = target: Fuc(a1-2)Gal(b1-3)GalNAc(b1-3)Gal(a1-4)Gal(b1-4)Glc
Outline: as §1

[5] = target: Fuc(a1-2)Gal(b1-3)GalNAc(b1-4)[Neu5Ac(a2-3)]Gal(b1-4)Glc
Outline: as §1

Fuc(a1-2)Gal(b1-3)GlcNAc = target: Fuc(a1-2)Gal(b1-3)GlcNAc
Outline: as §1

[6] = target: Fuc(a1-2)Gal(b1-3)GlcNAc(b1-2)Man(a1-3)[Fuc(a1-2)Gal(b1-3)GlcNAc(b1-2)Man(a1-6)]Man(b1-4)GlcNAc(b1-4)GlcNAc
Outline: as §1

[7] = target: Fuc(a1-2)Gal(b1-3)GlcNAc(b1-2)Man(a1-3)[Fuc(a1-2)Gal(b1-3)GlcNAc(b1-2)Man(a1-6)]Man(b1-4)GlcNAc(b1-4)[Fuc(a1-6)]GlcNAc
Outline: as §1

[8] = target: Fuc(a1-2)Gal(b1-3)GlcNAc(b1-3)Gal(b1-4)Glc
Outline: as §1

[9] = target: Fuc(a1-2)Gal(b1-3)GlcNAc(b1-3)GalNAc
Outline: as §1

[10] = target: Fuc(a1-2)Gal(b1-3)GlcNAc(b1-3)[Fuc(a1-2)Gal(b1-3)GlcNAc(b1-6)]GalNAc
Outline: as §1

[11] = target: Fuc(a1-2)Gal(b1-3)GlcNAc(b1-3)[Fuc(a1-3)[Gal(b1-4)]GlcNAc(b1-6)]Gal(b1-4)Glc
Outline: as §1

[12] = target: Fuc(a1-2)Gal(b1-3)GlcNAc(b1-3)[Gal(b1-4)GlcNAc(b1-6)]Gal(b1-4)Glc
Outline: as §1

[13] = target: Fuc(a1-2)Gal(b1-3)GlcNAc(b1-3)[Neu5Ac(a2-6)Gal(b1-4)GlcNAc(b1-6)]Gal(b1-4)Glc
Outline: as §1

[14] = target: Fuc(a1-2)Gal(b1-3)GlcNAc6S
Outline: as §1

[15] = target: Fuc(a1-2)Gal(b1-3)[Fuc(a1-4)]GlcNAc
Outline: as §1

[16] = target: Fuc(a1-2)Gal(b1-3)[Fuc(a1-4)]GlcNAc(b1-2)Man(a1-3)[Fuc(a1-2)Gal(b1-3)[Fuc(a1-4)]GlcNAc(b1-2)Man(a1-3)]Man(b1-4)GlcNAc(b1-4)GlcNAc
Outline: as §1

[17] = target: Fuc(a1-2)Gal(b1-3)[Fuc(a1-4)]GlcNAc(b1-2)Man(a1-3)[Fuc(a1-2)Gal(b1-3)[Fuc(a1-4)]GlcNAc(b1-2)Man(a1-6)]Man(b1-4)GlcNAc(b1-4)GlcNAc
Outline: as §1

[18] = target: Fuc(a1-2)Gal(b1-3)[Fuc(a1-4)]GlcNAc(b1-2)Man(a1-3)[Fuc(a1-2)Gal(b1-3)[Fuc(a1-4)]GlcNAc(b1-2)Man(a1-6)]Man(b1-4)GlcNAc(b1-4)[Fuc(a1-6)]GlcNAc(b1-4)[Fuc(a1-6)]GlcNAc
Outline: as §1

[19] = target: Fuc(a1-2)Gal(b1-3)[Fuc(a1-4)]GlcNAc(b1-3)[Fuc(a1-3)[Gal(b1-4)]GlcNAc(b1-6)]Gal(b1-4)Glc
Outline: as §1

[20] = target: Fuc(a1-2)Gal(b1-3)[Fuc(a1-4)]GlcNAc(b1-3)[Gal(b1-4)GlcNAc(b1-6)]Gal(b1-4)Glc
Outline: as §1

[21] = target: Fuc(a1-2)Gal(b1-4)Fuc(a1-3)]GlcNAc(b1-2)Man(a1-3)[Fuc(a1-2)Gal(b1-4)[Fuc(a1-3)]GlcNAc(b1-2)Man(a1-6)]Man(b1-4)GlcNAc(b1-4)GlcNAc
Outline: as §1

Fuc(a1-2)Gal(b1-4)Glc = target: Fuc(a1-2)Gal(b1-4)Glc
Outline: as §1

Fuc(a1-2)Gal(b1-4)Glc6S = target: Fuc(a1-2)Gal(b1-4)Glc6S
Outline: as §1

Fuc(a1-2)Gal(b1-4)GlcNAc = target: Fuc(a1-2)Gal(b1-4)GlcNAc
Outline: as §1

[22] = target: Fuc(a1-2)Gal(b1-4)GlcNAc(b1-2)Man
Outline: as §1

[23] = target: Fuc(a1-2)Gal(b1-4)GlcNAc(b1-2)Man(a1-3)[Fuc(a1-2)Gal(b1-4)GlcNAc(b1-2)Man(a1-6)]Man(b1-4)GlcNAc(b1-4)GlcNAc
Outline: as §1

[24] = target: Fuc(a1-2)Gal(b1-4)GlcNAc(b1-2)Man(a1-3)[Fuc(a1-2)Gal(b1-4)GlcNAc(b1-2)Man(a1-6)]Man(b1-4)GlcNAc(b1-4)[Fuc(a1-6)]GlcNAc
Outline: as §1

[25] = target: Fuc(a1-2)Gal(b1-4)GlcNAc(b1-2)[Fuc(a1-2)Gal(b1-4)GlcNAc(b1-4)]Man(a1-3)[Fuc(a1-2)Gal(b1-4)GlcNAc(b1-2)Man(a1-6)]Man(b1-4)GlcNAc(b1-4)GlcNAc
Outline: as §1

[26] = target: Fuc(a1-2)Gal(b1-4)GlcNAc(b1-3)Gal(b1-4)GlcNAc
Outline: as §1

[27] = target: Fuc(a1-2)Gal(b1-4)GlcNAc(b1-3)Gal(b1-4)GlcNAc(b1-2)Man(a1-3)[Fuc(a1-2)Gal(b1-4)GlcNAc(b1-3)Gal(b1-4)GlcNAc(b1-2)Man(a1-6)]Man(b1-4)GlcNAc(b1-4)GlcNAc
Outline: as §1

[28] = target: Fuc(a1-2)Gal(b1-4)GlcNAc(b1-3)Gal(b1-4)GlcNAc(b1-3)Gal(b1-4)GlcNAc
Outline: as §1

[29] = target: Fuc(a1-2)Gal(b1-4)GlcNAc(b1-3)GalNAc
Outline: as §1

[30] = target: Fuc(a1-2)Gal(b1-4)GlcNAc(b1-3)[Fuc(a1-2)Gal(b1-4)GlcNAc(b1-6)]GalNAc
Outline: as §1

[31] = target: Fuc(a1-2)Gal(b1-4)GlcNAc(b1-3)[Fuc(a1-3)[Gal(b1-4)]GlcNAc(b1-6)]Gal(b1-4)Glc
Outline: as §1

[32] = target: Fuc(a1-2)Gal(b1-4)GlcNAc(b1-6)GalNAc
Outline: as §1

[33] = target: Fuc(a1-2)Gal(b1-4)GlcNAc6S
Outline: as §1

[34] = target: Fuc(a1-2)Gal(b1-4)[Fuc(a1-3)]GlcNAc
Outline: as §1

[35] = target: Fuc(a1-2)Gal(b1-4)[Fuc(a1-3)]GlcNAc(b1-2)Man(a1-3)[Fuc(a1-2)Gal(b1-4)[Fuc(a1-3)]GlcNAc(b1-2)Man(a1-6)]Man(b1-4)GlcNAc(b1-4)GlcNAc
Outline: as §1

[36] = target: Fuc(a1-2)Gal(b1-4)[Fuc(a1-3)]GlcNAc(b1-2)Man(a1-3)[Fuc(a1-2)Gal(b1-4)[Fuc(a1-3)]GlcNAc(b1-2)Man(a1-6)]Man(b1-4)GlcNAc(b1-4)[Fuc(a1-6)]GlcNAc
Outline: as §1

[37] = target: Fuc(a1-2)Gal(b1-4)[Fuc(a1-3)]GlcNAc(b1-2)[Fuc(a1-2)Gal(b1-4)[Fuc(a1-3)]GlcNAc(b1-4)]Man(a1-3)[Fuc(a1-2)Gal(b1-4)[Fuc(a1-3)]GlcNAc(b1-2)Man(a1-6)]Man(b1-4)GlcNAc(b1-4)GlcNAc
Outline: as §1

[38] = target: Fuc(a1-2)Gal(b1-4)[Fuc(a1-3)]GlcNAc(b1-3)Gal(b1-4)[Fuc(a1-3)]GlcNAc
Outline: as §1

[39] = target: Fuc(a1-2)Gal(b1-4)[Fuc(a1-3)]GlcNAc(b1-3)Gal(b1-4)[Fuc(a1-3)]GlcNAc(b1-3)Gal(b1-4)[Fuc(a1-3)]GlcNAc
Outline: as §1

B1: MFG-E8 (Mus musculus), P21956 (protein)
chain: MQVSRVLAALCGMLLCASGLFAASGDFCDSSLCLNGGTCLTGQDNDIYCLCPEGFTGLVCNETERGPCSPNPCYNDAKCLVTLDTQRGDIFTEYICQCPVGYSGIHCETETNYYNLDGEYMFTTAVPNTAVPTPAPTPDLSNNLASRCSTQLGMEGGAIADSQISASSVYMGFMGLQRWGPELARLYRTGIVNAWTASNYDSKPWIQVNLLRKMRVSGVMTQGASRAGRAEYLKTFKVAYSLDGRKFEFIQDESGGDKEFLGNLDNNSLKVNMFNPTLEAQYIKLYPVSCHRGCTLRFELLGCELHGCSEPLGLKNNTIPDSQMSASSSYKTWNLRAFGWYPHLGRLDNQGKINAWTAQSNSAKEWLQVDLGTQRQVTGIITQGARDFGHIQYVASYKVAHSDDGVQWTVYEEQGSSKVFQGNLDNNSHKKNIFEKPFMARYVRVLPVSWHNRITLRLELLGC
For B1, the “glycan array binding signal (z-score)” value (Fuc(a1-2)Gal) was -0.805, the “glycan array binding signal (z-score)” value (Fuc(a1-2)Gal(b1-3)GalNAc) was 0.362 and the “glycan array binding signal (z-score)” value [1] was -0.109. For the same binder, the “glycan array binding signal (z-score)” value [2] was 0.179, the “glycan array binding signal (z-score)” value [3] was 0.021 and the “glycan array binding signal (z-score)” value [4] was -0.515. The “glycan array binding signal (z-score)” value [5] was 0.441, the “glycan array binding signal (z-score)” value (Fuc(a1-2)Gal(b1-3)GlcNAc) was 0.358 and the “glycan array binding signal (z-score)” value [6] was -0.774. The “glycan array binding signal (z-score)” value [7] was 0.684, the “glycan array binding signal (z-score)” value [8] was 0.064 and the “glycan array binding signal (z-score)” value [9] was 0.006. For the same binder, the “glycan array binding signal (z-score)” value [10] was 0.462, the “glycan array binding signal (z-score)” value [11] was 1.04 and the “glycan array binding signal (z-score)” value [12] was -0.065. The “glycan array binding signal (z-score)” value [13] was 0.247, the “glycan array binding signal (z-score)” value [14] was 1.53 and the “glycan array binding signal (z-score)” value [15] was -0.356. The “glycan array binding signal (z-score)” value [16] was 0.299, the “glycan array binding signal (z-score)” value [17] was 2.2 and the “glycan array binding signal (z-score)” value [18] was 0.394. The “glycan array binding signal (z-score)” value [19] was 0.24, the “glycan array binding signal (z-score)” value [20] was -0.803 and the “glycan array binding signal (z-score)” value [21] was 0.316. For the same binder, the “glycan array binding signal (z-score)” value (Fuc(a1-2)Gal(b1-4)Glc) was -0.349, the “glycan array binding signal (z-score)” value (Fuc(a1-2)Gal(b1-4)Glc6S) was 0.08 and the “glycan array binding signal (z-score)” value (Fuc(a1-2)Gal(b1-4)GlcNAc) was -0.121. For the same binder, the “glycan array binding signal (z-score)” value [22] was 0.441, the “glycan array binding signal (z-score)” value [23] was -0.554 and the “glycan array binding signal (z-score)” value [24] was 0.261. For the same binder, the “glycan array binding signal (z-score)” value [25] was 0.01, the “glycan array binding signal (z-score)” value [26] was -0.504 and the “glycan array binding signal (z-score)” value [27] was 0.035. For the same binder, the “glycan array binding signal (z-score)” value [28] was -0.712, the “glycan array binding signal (z-score)” value [29] was 0.522 and the “glycan array binding signal (z-score)” value [30] was 0.304. The “glycan array binding signal (z-score)” value [31] was -0.32, the “glycan array binding signal (z-score)” value [32] was -0.31 and the “glycan array binding signal (z-score)” value [33] was 0.247. For the same binder, the “glycan array binding signal (z-score)” value [34] was -0.275, the “glycan array binding signal (z-score)” value [35] was 1.02 and the “glycan array binding signal (z-score)” value [36] was 0.456. For the same binder, the “glycan array binding signal (z-score)” value [37] was 0.811, the “glycan array binding signal (z-score)” value [38] was 0.033 and the “glycan array binding signal (z-score)” value [39] was -0.191.

Reference: the supplement of paper PMC8728848
